The target in assay [1] is TAP-RIPK3 (K50A), enzymatically inactive (KD) (human) (UniProt Q9Y572). As to the kind of experiment: affinity purification with mass spectrometry; TAP-mock, TAP-RIPK3 WT or TAP-RIPK3-KD transiently transfected into 293 T cells, 18 h; lysate purified in two steps (streptavidin and calmodulin); SDS-PAGE bands analysed by LC-MS/MS; proteins found with TAP-mock and TAP-RIPK3-KD subtracted.

Protein sequences, listed by entry. Tags and fused reporters are not part of them. Lines headed by an entry give the natural chain unless they say otherwise; changes in a name come on top.
UniProt Q9Y572: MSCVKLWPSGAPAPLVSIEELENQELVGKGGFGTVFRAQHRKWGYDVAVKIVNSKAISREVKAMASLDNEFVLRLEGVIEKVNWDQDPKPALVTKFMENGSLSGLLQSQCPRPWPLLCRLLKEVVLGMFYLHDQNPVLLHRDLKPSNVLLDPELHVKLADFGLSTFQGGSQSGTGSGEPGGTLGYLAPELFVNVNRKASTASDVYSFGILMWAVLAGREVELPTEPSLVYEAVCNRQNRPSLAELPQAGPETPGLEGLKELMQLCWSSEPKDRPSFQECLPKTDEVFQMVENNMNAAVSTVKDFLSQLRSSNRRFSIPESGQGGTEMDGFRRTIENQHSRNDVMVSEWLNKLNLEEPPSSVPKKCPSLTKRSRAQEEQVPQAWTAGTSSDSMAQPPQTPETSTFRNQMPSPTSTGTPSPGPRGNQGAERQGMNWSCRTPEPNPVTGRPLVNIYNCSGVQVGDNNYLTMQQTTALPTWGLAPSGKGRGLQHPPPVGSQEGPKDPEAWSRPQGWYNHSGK

The target in assay [2] is TAP-RIPK3 wild-type (WT) fusion protein (human) (UniProt Q9Y572). The assay is described as above.

These are yes or no findings as the source states them, for the method shown. Binding seen in cells or lysates may run through a third protein. A yes stands for co-enrichment or nearness to the bait. Other partners may have been found. For some assays here: A no says only that the protein was not detected with the bait.

Turning to “Tripartite motif containing 28 (TRIM28), endogenous in 293 T cells (from UniProt Q13263-1 1-835)”, the results for the binding result in assay [1] and in assay [2] were “no binding” and “binds”, respectively.

The values are drawn from publication PMC8379748.
